{"source": "paper PMC11269669", "binders": {"B1": {"name": "endogenous MORC2 (Microrchidia family CW-type zinc finger 2) (protein, UniProt Q9Y6X9 1-1032)", "chain": "MAFTNYSSLNRAQLTFEYLHTNSTTHEFLFGALAELVDNARDADATRIDIYAERREDLRGGFMLCFLDDGAGMDPSDAASVIQFGKSAKRTPESTQIGQYGNGLKSGSMRIGKDFILFTKKEDTMTCLFLSRTFHEEEGIDEVIVPLPTWNARTREPVTDNVEKFAIETELIYKYSPFRTEEEVMTQFMKIPGDSGTLVIIFNLKLMDNGEPELDIISNPRDIQMAETSPEGTKPERRSFRAYAAVLYIDPRMRIFIHGHKVQTKRLSCCLYKPRMYKYTSSRFKTRAEQEVKKAEHVARIAEEKAREAESKARTLEVRLGGDLTRDSRVMLRQVQNRAITLRREADVKKRIKEAKQRALKEPKELNFVFGVNIEHRDLDGMFIYNCSRLIKMYEKVGPQLEGGMACGGVVGVVDVPYLVLEPTHNKQDFADAKEYRHLLRAMGEHLAQYWKDIAIAQRGIIKFWDEFGYLSANWNQPPSSELRYKRRRAMEIPTTIQCDLCLKWRTLPFQLSSVEKDYPDTWVCSMNPDPEQDRCEASEQKQKVPLGTFRKDMKTQEEKQKQLTEKIRQQQEKLEALQKTTPIRSQADLKKLPLEVTTRPSTEEPVRRPQRPRSPPLPAVIRNAPSRPPSLPTPRPASQPRKAPVISSTPKLPALAAREEASTSRLLQPPEAPRKPANTLVKTASRPAPLVQQLSPSLLPNSKSPREVPSPKVIKTPVVKKTESPIKLSPATPSRKRSVAVSDEEEVEEEAERRKERCKRGRFVVKEEKKDSNELSDSAGEEDSADLKRAQKDKGLHVEVRVNREWYTGRVTAVEVGKHVVRWKVKFDYVPTDTTPRDRWVEKGSEDVRLMKPPSPEHQSLDTQQEGGEEEVGPVAQQAIAVAEPSTSECLRIEPDTTALSTNHETIDLLVQILRNCLRYFLPPSFPISKKQLSAMNSDELISFPLKEYFKQYEVGLQNLCNSYQSRADSRAKASEESLRTSERKLRETEEKLQKLRTNIVALLQKVQEDIDINTDDELDAYIEDLITKGD"}, "B2": {"name": "Flag-MORC2 translated in vitro (protein, UniProt Q9Y6X9 1-1032)", "chain": "B1 chain"}}, "key": {"[1]": {"molecular_target": "T1, His-RBM39-FL (full-length His-tagged RBM39) (UniProt Q14498)", "T1 sequence": "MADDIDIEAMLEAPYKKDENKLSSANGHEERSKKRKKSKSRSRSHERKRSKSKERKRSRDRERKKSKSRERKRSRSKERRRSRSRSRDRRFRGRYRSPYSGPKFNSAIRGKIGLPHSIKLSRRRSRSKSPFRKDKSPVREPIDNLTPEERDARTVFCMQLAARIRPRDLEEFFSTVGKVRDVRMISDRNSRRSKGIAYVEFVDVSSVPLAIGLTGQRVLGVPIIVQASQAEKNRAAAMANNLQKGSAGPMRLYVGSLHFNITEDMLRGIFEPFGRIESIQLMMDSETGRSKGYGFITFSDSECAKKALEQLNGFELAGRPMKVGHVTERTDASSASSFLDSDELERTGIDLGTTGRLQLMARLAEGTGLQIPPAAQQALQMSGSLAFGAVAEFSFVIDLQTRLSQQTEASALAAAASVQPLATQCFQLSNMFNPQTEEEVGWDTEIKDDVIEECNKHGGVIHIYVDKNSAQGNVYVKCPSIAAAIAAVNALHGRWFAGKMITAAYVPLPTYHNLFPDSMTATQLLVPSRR", "experiment": "co-IP; His-vector, His-full-length and domain-deleted RBM39 plasmids transfected into HCT116 cells; lysates immunoprecipitated with His antibody, western blot"}, "[2]": {"molecular_target": "T2, endogenous RBM39 (RNA binding motif protein 39) (human (endogenous in HCT116, SW480, SW620, HT-29)) (UniProt Q14498)", "T2 sequence": "T1 sequence", "experiment": "co-IP; nuclear proteins of SW620 or HT-29 cells immunoprecipitated with IgG or RBM39 antibodies, blotted with MORC2 and RBM39 antibodies"}, "[3]": {"molecular_target": "T2, endogenous RBM39 (RNA binding motif protein 39) (human (endogenous in HCT116, SW480, SW620, HT-29))", "experiment": "co-IP; endogenous proteins, SW480 cell lysates immunoprecipitated with the indicated antibody or IgG, western blot; IP lysis buffer 20 mM Tris-HCl pH 7.5, 150 mM NaCl, 1% Triton X-100, Protein A/G agarose, overnight at 4 °C"}, "GST-RBM39 fusion protein": {"molecular_target": "T3, GST-RBM39 fusion protein (UniProt Q14498)", "T3 sequence": "T1 sequence", "experiment": "pull-down; GST or GST-RBM39 fusion protein incubated with Flag-MORC2 translated in vitro; bound proteins detected by western blot; only the target purified"}}, "note": "No constants are given. Whether binding was seen depends on the method and setting. Binding seen in cells or lysates may run through a third protein. Some results given as binding are weak or reduced against the parent protein; the word gives no strength. For some of these results: Tags and fused reporters may be left off the sequences shown.", "data": [{"binder": "B1", "values": [{"measurement": "binding", "setting": "[1]", "result": "binds"}, {"measurement": "binding", "setting": "[2]", "result": "binds"}, {"measurement": "binding", "setting": "[3]", "result": "binds"}]}, {"binder": "B2", "values": [{"measurement": "binding", "setting": "GST-RBM39 fusion protein", "result": "binds"}]}]}
